Data as given in ChEMBL document CHEMBL1157379, “Transcriptional response of Candida parapsilosis following exposure to farnesol” (2007).
Further values from the same series stand in other lists.

Tests used:
Type in all cases: functional
[1] = tested on: Candida parapsilosis; experiment: Increase in CGD gene ortholog accession number orf19.1541 expression in Candida parapsilosis CLIB214 at 50 uM after 2 hrs by microarray based transcriptional profiling relative to control
[2] = tested on: Candida parapsilosis; experiment: Increase in CGD gene ortholog accession number orf19.4963 expression in Candida parapsilosis CLIB214 at 50 uM after 2 hrs by microarray based transcriptional profiling relative to control
[3] = tested on: Candida parapsilosis; experiment: Increase in CGD gene ortholog accession number orf19.5247 expression in Candida parapsilosis CLIB214 at 50 uM after 2 hrs by microarray based transcriptional profiling relative to control
[4] = tested on: Candida parapsilosis; experiment: Decrease in PDX3 gene expression in Candida parapsilosis CLIB214 at 50 uM after 2 hrs by microarray based transcriptional profiling relative to control
[5] = tested on: Candida parapsilosis; experiment: Increase in BGL2 gene expression in Candida parapsilosis CLIB214 at 50 uM after 2 hrs by microarray based transcriptional profiling relative to control
[6] = tested on: Candida parapsilosis; experiment: Decrease in CGD gene ortholog accession number orf19.2541 expression in Candida parapsilosis CLIB214 at 50 uM after 2 hrs by microarray based transcriptional profiling relative to control
[7] = tested on: Candida parapsilosis; experiment: Increase in HSP78 gene expression in Candida parapsilosis CLIB214 at 50 uM after 2 hrs by microarray based transcriptional profiling relative to control
[8] = tested on: Candida parapsilosis; experiment: Decrease in CGD gene ortholog accession number orf19.4898 expression in Candida parapsilosis CLIB214 at 50 uM after 2 hrs by microarray based transcriptional profiling relative to control
[9] = tested on: Candida parapsilosis; experiment: Decrease in CGD gene ortholog accession number orf19.2756 expression in Candida parapsilosis CLIB214 at 50 uM after 2 hrs by microarray based transcriptional profiling relative to control
[10] = tested on: Candida parapsilosis; experiment: Increase in GenBank accession number NP_943647.1 expression in Candida parapsilosis CLIB214 at 50 uM after 2 hrs by microarray based transcriptional profiling relative to control
[11] = tested on: Candida parapsilosis; experiment: Decrease in CGD gene ortholog accession number orf19.3649 expression in Candida parapsilosis CLIB214 at 50 uM after 2 hrs by microarray based transcriptional profiling relative to control
[12] = tested on: Candida parapsilosis; experiment: Increase in CGD gene ortholog accession number orf19.658 expression in Candida parapsilosis CLIB214 at 50 uM after 2 hrs by microarray based transcriptional profiling relative to control
[13] = tested on: Candida parapsilosis; experiment: Increase in CGD gene ortholog accession number orf19.6730 expression in Candida parapsilosis CLIB214 at 50 uM after 2 hrs by microarray based transcriptional profiling relative to control
[14] = tested on: Candida parapsilosis; experiment: Decrease in CGD gene ortholog accession number orf19.5388 expression in Candida parapsilosis CLIB214 at 50 uM after 2 hrs by microarray based transcriptional profiling relative to control
[15] = tested on: Candida parapsilosis; experiment: Increase in ERB1 gene expression in Candida parapsilosis CLIB214 at 50 uM after 2 hrs by microarray based transcriptional profiling relative to control
[16] = tested on: Candida parapsilosis; experiment: Increase in CHO2 gene expression in Candida parapsilosis CLIB214 at 50 uM after 2 hrs by microarray based transcriptional profiling relative to control
[17] = tested on: Candida parapsilosis; experiment: Increase in CGD gene ortholog accession number orf19.72 expression in Candida parapsilosis CLIB214 at 50 uM after 2 hrs by microarray based transcriptional profiling relative to control
[18] = tested on: Candida parapsilosis; experiment: Increase in CGD gene ortholog accession number orf19.7290 expression in Candida parapsilosis CLIB214 at 50 uM after 2 hrs by microarray based transcriptional profiling relative to control
[19] = tested on: Candida parapsilosis; experiment: Increase in GCV1 gene expression in Candida parapsilosis CLIB214 at 50 uM after 2 hrs by microarray based transcriptional profiling relative to control
[20] = tested on: Candida parapsilosis; experiment: Increase in CGD gene ortholog accession number orf19.6371 expression in Candida parapsilosis CLIB214 at 50 uM after 2 hrs by microarray based transcriptional profiling relative to control
[21] = tested on: Candida parapsilosis; experiment: Decrease in CGD gene ortholog accession number orf19.540 expression in Candida parapsilosis CLIB214 at 50 uM after 2 hrs by microarray based transcriptional profiling relative to control
[22] = tested on: Candida parapsilosis; experiment: Reduction in CHS5 gene expression in Candida parapsilosis CLIB214 by RT-PCR
[23] = tested on: Candida parapsilosis; experiment: Decrease in ZCF30 gene expression in Candida parapsilosis CLIB214 at 50 uM after 2 hrs by microarray based transcriptional profiling relative to control
[24] = tested on: Candida parapsilosis; experiment: Decrease in CGD gene ortholog accession number orf19.4953 expression in Candida parapsilosis CLIB214 at 50 uM after 2 hrs by microarray based transcriptional profiling relative to control
[25] = tested on: Candida parapsilosis; experiment: Increase in CGD gene ortholog accession number orf19.5517 expression in Candida parapsilosis CLIB214 at 50 uM after 2 hrs by microarray based transcriptional profiling relative to control
[26] = tested on: Candida parapsilosis; experiment: Increase in RPS22A gene expression in Candida parapsilosis CLIB214 at 50 uM after 2 hrs by microarray based transcriptional profiling relative to control
[27] = tested on: Candida parapsilosis; experiment: Decrease in CGD gene ortholog accession number orf19.4763 expression in Candida parapsilosis CLIB214 at 50 uM after 2 hrs by microarray based transcriptional profiling relative to control
[28] = tested on: Candida parapsilosis; experiment: Decrease in CGD gene ortholog accession number orf19.2724 expression in Candida parapsilosis CLIB214 at 50 uM after 2 hrs by microarray based transcriptional profiling relative to control
[29] = tested on: Candida parapsilosis; experiment: Decrease in CGD gene ortholog accession number orf19.1595 expression in Candida parapsilosis CLIB214 at 50 uM after 2 hrs by microarray based transcriptional profiling relative to control
[30] = tested on: Candida parapsilosis; experiment: Increase in CGD gene ortholog accession number orf19.6407 expression in Candida parapsilosis CLIB214 at 50 uM after 2 hrs by microarray based transcriptional profiling relative to control
[31] = tested on: Candida parapsilosis; experiment: Decrease in CGD gene ortholog accession number orf19.6976 expression in Candida parapsilosis CLIB214 at 50 uM after 2 hrs by microarray based transcriptional profiling relative to control
[32] = tested on: Candida parapsilosis; experiment: Increase in HSP90 gene expression in Candida parapsilosis CLIB214 at 50 uM after 2 hrs by microarray based transcriptional profiling relative to control
[33] = tested on: Candida parapsilosis; experiment: Decrease in CGD gene ortholog accession number orf19.587 expression in Candida parapsilosis CLIB214 at 50 uM after 2 hrs by microarray based transcriptional profiling relative to control
[34] = tested on: Candida parapsilosis; experiment: Increase in GenBank accession number NP_943635.1 expression in Candida parapsilosis CLIB214 at 50 uM after 2 hrs by microarray based transcriptional profiling relative to control
[35] = tested on: Candida parapsilosis; experiment: Decrease in CGD gene ortholog accession number orf19.1647 expression in Candida parapsilosis CLIB214 at 50 uM after 2 hrs by microarray based transcriptional profiling relative to control
[36] = tested on: Candida parapsilosis; experiment: Increase in CGD gene ortholog accession number orf19.2608 expression in Candida parapsilosis CLIB214 at 50 uM after 2 hrs by microarray based transcriptional profiling relative to control

CC(C)=CCC/C(C)=C/CC/C(C)=C/CO [FARNESOL]
fold change (FC) [1]: 1.92 | fold change (FC) [2]: 1.82 | fold change (FC) [3]: 1.56 | fold change (FC) [4]: 2.12 | fold change (FC) [5]: 2.4 | fold change (FC) [6]: 1.6 | fold change (FC) [7]: 2.09 | fold change (FC) [8]: 1.87 | fold change (FC) [9]: 1.9 | fold change (FC) [10]: 1.62 | fold change (FC) [11]: 1.54 | fold change (FC) [12]: 1.83 | fold change (FC) [13]: 2.12 | fold change (FC) [14]: 2.08 | fold change (FC) [15]: 1.63 | fold change (FC) [16]: 1.6 | fold change (FC) [17]: 1.79 | fold change (FC) [18]: 1.54 | fold change (FC) [19]: 3.3 | fold change (FC) [20]: 1.56 | fold change (FC) [21]: 1.8 | fold change (FC) [22]: 1.52 | fold change (FC) [23]: 1.78 | fold change (FC) [24]: 1.75 | fold change (FC) [25]: 5.66 | fold change (FC) [26]: 2.5 | fold change (FC) [27]: 1.87 | fold change (FC) [28]: 1.52 | fold change (FC) [29]: 1.83 | fold change (FC) [30]: 1.66 | fold change (FC) [31]: 1.69 | fold change (FC) [32]: 3.05 | fold change (FC) [33]: 1.7 | fold change (FC) [34]: 2.03 | fold change (FC) [35]: 1.66 | fold change (FC) [36]: 2.15
